Results are given in words; binding and its absence hold for the method and conditions named. Some binding calls cover weakened binding; strength is not graded here. Sequences can lack the tags named with a protein.
Molecular target: Recombinant WT ADR-2 (C. elegans) (UniProt Q22618)
Assay: pull-down; in vitro pulldown: recombinant ADR-2 (5 nM) held on anti-rabbit IgG Dynabeads by ADR-2 antibody PA6496, 4°C, BSA block; ADR-1 proteins (3 nM) added in EMSA buffer (50 mM KCl, 10 mM Tris-HCl pH 8.0, 10% glycerol, 1 mM MgCl2) for 1 h, with or without 46 bp dsRNA (0-10 nM); also after micrococcal nuclease treatment of the WT proteins; immunoblot with ADR-1 and ADR-2 antibodies; both purified

Protein sequences, listed by entry. Tags and fused reporters are not part of them.
UniProt Q22618: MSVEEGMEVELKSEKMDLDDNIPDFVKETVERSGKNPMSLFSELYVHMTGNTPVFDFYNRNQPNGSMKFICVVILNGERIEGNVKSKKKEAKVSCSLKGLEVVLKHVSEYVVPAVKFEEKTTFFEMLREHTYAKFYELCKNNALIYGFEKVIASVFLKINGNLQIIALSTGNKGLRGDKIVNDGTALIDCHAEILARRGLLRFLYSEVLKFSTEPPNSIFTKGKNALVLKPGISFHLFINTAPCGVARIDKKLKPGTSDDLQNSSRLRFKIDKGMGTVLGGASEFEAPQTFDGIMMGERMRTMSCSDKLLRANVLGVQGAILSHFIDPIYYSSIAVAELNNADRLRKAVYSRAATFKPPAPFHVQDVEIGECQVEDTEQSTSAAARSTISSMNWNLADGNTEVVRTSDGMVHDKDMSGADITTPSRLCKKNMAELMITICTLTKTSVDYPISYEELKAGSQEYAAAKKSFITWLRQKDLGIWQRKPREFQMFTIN

binding	Binder
binds	Recombinant WT ADR-1 (His-ADR-1) (protein, UniProt Q9U3D6 1-964) MDQNPNYNFGYGQAYGSGTDHTSDSTNNYNWASQWSQPESAASLATHTFPQYVSQQQQQQQQQAQQQAQNTYAAMNPISTFMQQQQRAQTFPQKKYGQQGGAPKPSAIRNNNFGAFGGGHALSQEWVQPMSQNQMGGPQGNRFFNNQKGGPFNQNKPNWRQNKPKGPAAPKKFDSTGKSPAMLLHELFKDVSEEYTEVEGVPKKYCCTLKVNGRTFQMESVNKKAAKQKCSELVVRDLRPDVHVTPFEEGVAAKAAAPVKKEIDAASGNGQNNKRNLLQADAISNQPTPKKVSAVKKAKLQLTPVESALSLLDLMQKIIAESAEKYSPVFEASEVPKDPEIPEVEVKKEEVDTNGENVANEKKSGWRKNETMHNVTLKFVEQNKQYTKMGPSRGVLKDMVIREALRDLFNVSHADITTVARRHASNRLGHDTTILQCLNTICSILNCTLTIECEPAEDRPLGIGRAYFMAKCTIIDHNENDLKFEVKSSSLASKAMAKDWVAQETLKNYFAIDPSSCVKTDAVSSQGPCALLHAMLNKQTKQKCKIAYEFKDNVPPVAGQATTTFYCECVIDETDRYIGVGRSKKLAKSEAAMQALKKLFKIDYDPAGNYPLALTSRAMTESKVSPLCRHIAEFCKREYHQMTEYYQIPPSNLFAAFLLVNAQEEKRVLAMGSSIQYIVEPDTLSGANGTSLLHLDAIILARRAMLKAFIHELSTVDSECSIFEKKEEGKAALKPNLRLVLYSNYSPPCIHAVDDAATKKLSYVTPTNLTCVPDDVLTYEQIKETKSLRVHCTADKLFKWNTLGIQGALLSNVLHPIFIDNIFFGSEAPVSDESLSYALQGRLGPNENEREIIVESMPVQMRMHMGISHLWHRGVDSVETLDYNTGRTSKGSPSRVCKAEIFEAYRKLNGVDQAVVNYAKAKEMASEYQYEKKVFYEKLEAAGLGKWQTKPAELVDSFTLAAFD
binds	Recombinant ADR-1 dsRBD1 mutant (KKxxK into EAxxA in dsRBD1) (protein, UniProt Q9U3D6 1-964) MDQNPNYNFGYGQAYGSGTDHTSDSTNNYNWASQWSQPESAASLATHTFPQYVSQQQQQQQQQAQQQAQNTYAAMNPISTFMQQQQRAQTFPQKKYGQQGGAPKPSAIRNNNFGAFGGGHALSQEWVQPMSQNQMGGPQGNRFFNNQKGGPFNQNKPNWRQNKPKGPAAPKKFDSTGKSPAMLLHELFKDVSEEYTEVEGVPKKYCCTLKVNGRTFQMESVNEAAAAQKCSELVVRDLRPDVHVTPFEEGVAAKAAAPVKKEIDAASGNGQNNKRNLLQADAISNQPTPKKVSAVKKAKLQLTPVESALSLLDLMQKIIAESAEKYSPVFEASEVPKDPEIPEVEVKKEEVDTNGENVANEKKSGWRKNETMHNVTLKFVEQNKQYTKMGPSRGVLKDMVIREALRDLFNVSHADITTVARRHASNRLGHDTTILQCLNTICSILNCTLTIECEPAEDRPLGIGRAYFMAKCTIIDHNENDLKFEVKSSSLASKAMAKDWVAQETLKNYFAIDPSSCVKTDAVSSQGPCALLHAMLNKQTKQKCKIAYEFKDNVPPVAGQATTTFYCECVIDETDRYIGVGRSKKLAKSEAAMQALKKLFKIDYDPAGNYPLALTSRAMTESKVSPLCRHIAEFCKREYHQMTEYYQIPPSNLFAAFLLVNAQEEKRVLAMGSSIQYIVEPDTLSGANGTSLLHLDAIILARRAMLKAFIHELSTVDSECSIFEKKEEGKAALKPNLRLVLYSNYSPPCIHAVDDAATKKLSYVTPTNLTCVPDDVLTYEQIKETKSLRVHCTADKLFKWNTLGIQGALLSNVLHPIFIDNIFFGSEAPVSDESLSYALQGRLGPNENEREIIVESMPVQMRMHMGISHLWHRGVDSVETLDYNTGRTSKGSPSRVCKAEIFEAYRKLNGVDQAVVNYAKAKEMASEYQYEKKVFYEKLEAAGLGKWQTKPAELVDSFTLAAFD
